The other results are listed elsewhere or left out.
How the values were obtained:
Assay in all cases: log2 fold change, soluble protein after heating vs DMSO (PISA); higher = thermal stabilisation; K562 cells, 10 uM, 30 min; active = over 0.2 and 3.5 SD of the protein, either way, in both replicates (recomputed)
[1] = compound: CC1=C(C=C(C=C1)NC(=O)C2=CC(=CC=C2)C(C)(C)C#N)NC3=CC4=C(C=C3)N=CN(C4=O)C
In short: (§1)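 Thermal stability values are relative to control samples and come from duplicates. They are expressed as log2 fold changes. For measurement, K562 cells (2×10^6 cells/mL) received 10 μM compound for 30 min, and aliquots were heated for 3 min over 48°C-58°C, pooled, and extracted at 4°C in PBS with 0.5% NP-40. Soluble protein, the supernatant after 21,000xg for 90 min, was quantified by TMTpro 16plex LC-MS/MS with equalised channel sums.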

Amino acid sequences for entries named in this document (tags omitted). A change or cut given only in a name is not applied to a line headed by its entry.
UniProt Q7L5N1: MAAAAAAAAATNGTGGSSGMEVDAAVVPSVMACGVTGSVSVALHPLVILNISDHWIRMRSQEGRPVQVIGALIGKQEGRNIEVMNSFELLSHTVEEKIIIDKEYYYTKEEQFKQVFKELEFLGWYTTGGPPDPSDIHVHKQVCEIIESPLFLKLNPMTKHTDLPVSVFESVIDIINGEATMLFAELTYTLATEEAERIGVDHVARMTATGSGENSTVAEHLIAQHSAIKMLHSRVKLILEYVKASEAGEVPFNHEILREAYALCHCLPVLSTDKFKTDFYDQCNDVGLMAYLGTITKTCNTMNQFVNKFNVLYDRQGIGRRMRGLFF
UniProt P57737: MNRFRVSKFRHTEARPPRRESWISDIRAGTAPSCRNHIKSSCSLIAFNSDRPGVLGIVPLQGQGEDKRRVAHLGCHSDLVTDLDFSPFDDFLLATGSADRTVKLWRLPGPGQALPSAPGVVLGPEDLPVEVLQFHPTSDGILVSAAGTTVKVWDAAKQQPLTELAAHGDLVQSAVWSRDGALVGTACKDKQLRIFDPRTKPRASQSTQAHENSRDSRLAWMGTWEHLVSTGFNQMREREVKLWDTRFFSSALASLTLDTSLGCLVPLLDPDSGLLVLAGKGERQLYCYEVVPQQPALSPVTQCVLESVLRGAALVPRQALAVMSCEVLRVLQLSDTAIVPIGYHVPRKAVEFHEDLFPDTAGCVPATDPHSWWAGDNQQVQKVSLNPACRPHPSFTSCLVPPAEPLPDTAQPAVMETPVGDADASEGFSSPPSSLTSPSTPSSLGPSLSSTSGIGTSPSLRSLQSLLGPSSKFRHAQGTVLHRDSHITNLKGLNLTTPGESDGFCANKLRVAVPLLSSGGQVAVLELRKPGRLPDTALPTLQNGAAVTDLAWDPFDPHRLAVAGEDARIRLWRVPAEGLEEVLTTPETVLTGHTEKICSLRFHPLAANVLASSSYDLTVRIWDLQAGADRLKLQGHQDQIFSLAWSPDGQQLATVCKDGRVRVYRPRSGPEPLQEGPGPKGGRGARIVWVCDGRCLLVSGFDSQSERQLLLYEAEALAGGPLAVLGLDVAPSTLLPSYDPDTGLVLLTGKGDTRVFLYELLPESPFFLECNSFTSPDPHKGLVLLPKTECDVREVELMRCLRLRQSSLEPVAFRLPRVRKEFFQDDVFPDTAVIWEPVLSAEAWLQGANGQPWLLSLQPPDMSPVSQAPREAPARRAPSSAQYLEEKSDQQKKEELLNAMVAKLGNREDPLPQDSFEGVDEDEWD
UniProt Q9Y2Z9: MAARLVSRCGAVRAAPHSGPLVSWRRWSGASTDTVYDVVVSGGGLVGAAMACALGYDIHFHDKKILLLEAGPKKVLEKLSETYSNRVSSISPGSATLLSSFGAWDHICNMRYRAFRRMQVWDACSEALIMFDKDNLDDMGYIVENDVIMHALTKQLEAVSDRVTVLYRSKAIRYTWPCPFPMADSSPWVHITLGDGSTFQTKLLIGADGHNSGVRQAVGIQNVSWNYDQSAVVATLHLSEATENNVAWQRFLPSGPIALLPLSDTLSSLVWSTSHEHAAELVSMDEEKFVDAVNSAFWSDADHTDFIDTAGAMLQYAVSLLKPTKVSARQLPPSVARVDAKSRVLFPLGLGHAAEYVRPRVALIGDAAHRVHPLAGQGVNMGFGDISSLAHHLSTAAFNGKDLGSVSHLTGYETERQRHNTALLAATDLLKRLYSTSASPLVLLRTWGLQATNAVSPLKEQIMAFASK
UniProt Q5RI15: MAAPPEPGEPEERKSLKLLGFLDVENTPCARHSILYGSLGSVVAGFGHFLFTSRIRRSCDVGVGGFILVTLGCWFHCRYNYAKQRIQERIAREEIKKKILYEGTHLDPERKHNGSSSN
UniProt Q86X83, whole entry, looked up: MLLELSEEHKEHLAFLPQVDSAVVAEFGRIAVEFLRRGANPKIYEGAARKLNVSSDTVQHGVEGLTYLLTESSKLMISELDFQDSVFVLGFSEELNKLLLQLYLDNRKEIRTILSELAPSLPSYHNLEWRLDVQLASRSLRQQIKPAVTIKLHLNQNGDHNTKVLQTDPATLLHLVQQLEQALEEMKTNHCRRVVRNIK
UniProt P35606: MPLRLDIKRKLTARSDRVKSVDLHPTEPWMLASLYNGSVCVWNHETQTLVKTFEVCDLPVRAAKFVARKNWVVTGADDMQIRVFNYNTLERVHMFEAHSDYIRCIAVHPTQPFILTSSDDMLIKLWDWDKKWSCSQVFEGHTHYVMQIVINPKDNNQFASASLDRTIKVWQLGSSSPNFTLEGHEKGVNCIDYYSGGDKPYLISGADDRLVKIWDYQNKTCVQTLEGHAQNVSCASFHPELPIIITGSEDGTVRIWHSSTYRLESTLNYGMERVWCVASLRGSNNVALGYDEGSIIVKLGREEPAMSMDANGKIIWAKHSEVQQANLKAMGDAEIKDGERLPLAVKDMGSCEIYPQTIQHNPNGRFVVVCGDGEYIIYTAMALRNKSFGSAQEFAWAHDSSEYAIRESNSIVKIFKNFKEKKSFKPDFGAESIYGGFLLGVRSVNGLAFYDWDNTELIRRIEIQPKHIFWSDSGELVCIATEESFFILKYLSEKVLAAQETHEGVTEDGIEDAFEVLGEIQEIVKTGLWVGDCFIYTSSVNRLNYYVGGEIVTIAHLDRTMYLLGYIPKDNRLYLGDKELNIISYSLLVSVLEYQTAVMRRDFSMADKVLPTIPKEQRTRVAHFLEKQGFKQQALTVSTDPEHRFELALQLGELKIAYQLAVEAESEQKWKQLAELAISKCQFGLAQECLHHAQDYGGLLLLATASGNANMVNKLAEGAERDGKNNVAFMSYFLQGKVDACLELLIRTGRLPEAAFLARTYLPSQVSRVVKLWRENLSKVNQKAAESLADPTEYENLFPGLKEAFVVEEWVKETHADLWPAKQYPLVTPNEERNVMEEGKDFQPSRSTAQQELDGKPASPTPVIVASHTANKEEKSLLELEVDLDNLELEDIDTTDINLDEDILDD
UniProt Q9UBW8: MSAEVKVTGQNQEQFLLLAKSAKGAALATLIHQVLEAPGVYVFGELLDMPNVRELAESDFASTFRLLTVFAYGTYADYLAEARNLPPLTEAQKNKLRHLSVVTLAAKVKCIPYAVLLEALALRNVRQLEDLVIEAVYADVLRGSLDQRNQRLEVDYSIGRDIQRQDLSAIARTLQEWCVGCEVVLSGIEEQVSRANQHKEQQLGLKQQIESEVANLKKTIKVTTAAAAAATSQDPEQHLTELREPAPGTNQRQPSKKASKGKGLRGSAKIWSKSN
UniProt Q5HYK3: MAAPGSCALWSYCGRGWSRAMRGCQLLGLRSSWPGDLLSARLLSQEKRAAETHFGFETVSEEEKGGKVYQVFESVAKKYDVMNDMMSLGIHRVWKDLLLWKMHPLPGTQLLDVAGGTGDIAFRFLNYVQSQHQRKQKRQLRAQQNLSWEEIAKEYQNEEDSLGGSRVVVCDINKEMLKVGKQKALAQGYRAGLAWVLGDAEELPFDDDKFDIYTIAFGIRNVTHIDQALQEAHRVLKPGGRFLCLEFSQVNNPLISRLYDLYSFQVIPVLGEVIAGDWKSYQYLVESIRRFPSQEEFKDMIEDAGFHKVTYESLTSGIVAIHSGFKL
UniProt Q9Y6G5, whole entry, looked up: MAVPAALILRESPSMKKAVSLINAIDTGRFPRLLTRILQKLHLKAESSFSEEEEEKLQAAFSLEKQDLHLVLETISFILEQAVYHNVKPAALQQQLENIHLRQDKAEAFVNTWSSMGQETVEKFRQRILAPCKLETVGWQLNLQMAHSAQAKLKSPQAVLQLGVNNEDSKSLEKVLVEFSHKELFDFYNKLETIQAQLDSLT
UniProt P15954, whole entry, looked up: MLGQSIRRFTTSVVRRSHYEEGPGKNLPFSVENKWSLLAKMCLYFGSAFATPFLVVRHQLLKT
UniProt Q14061: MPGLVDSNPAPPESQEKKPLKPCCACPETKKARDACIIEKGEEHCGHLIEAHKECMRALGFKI
UniProt P09669, whole entry, looked up: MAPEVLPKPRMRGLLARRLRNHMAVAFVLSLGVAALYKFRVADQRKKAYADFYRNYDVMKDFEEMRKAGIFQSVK
UniProt P49747: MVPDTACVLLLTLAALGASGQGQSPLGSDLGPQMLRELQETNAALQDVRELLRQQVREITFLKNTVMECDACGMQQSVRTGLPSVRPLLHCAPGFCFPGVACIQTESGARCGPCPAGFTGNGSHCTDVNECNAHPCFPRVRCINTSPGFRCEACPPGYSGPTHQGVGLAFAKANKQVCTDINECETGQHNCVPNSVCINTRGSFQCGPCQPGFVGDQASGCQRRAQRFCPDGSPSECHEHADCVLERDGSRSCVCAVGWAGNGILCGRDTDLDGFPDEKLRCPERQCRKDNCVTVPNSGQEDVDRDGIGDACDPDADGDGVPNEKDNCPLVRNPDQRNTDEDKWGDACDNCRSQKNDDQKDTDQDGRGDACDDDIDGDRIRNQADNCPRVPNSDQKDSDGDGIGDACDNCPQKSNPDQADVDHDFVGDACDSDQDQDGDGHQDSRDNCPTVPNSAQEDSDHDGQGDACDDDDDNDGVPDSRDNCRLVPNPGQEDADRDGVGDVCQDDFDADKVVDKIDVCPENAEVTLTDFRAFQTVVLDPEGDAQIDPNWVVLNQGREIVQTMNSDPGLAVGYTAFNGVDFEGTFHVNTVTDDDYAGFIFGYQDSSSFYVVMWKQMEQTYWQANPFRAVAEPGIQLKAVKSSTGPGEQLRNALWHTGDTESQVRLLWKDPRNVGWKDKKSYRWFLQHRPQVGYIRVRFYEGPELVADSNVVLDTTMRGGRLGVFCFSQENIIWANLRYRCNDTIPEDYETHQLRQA
UniProt P53618: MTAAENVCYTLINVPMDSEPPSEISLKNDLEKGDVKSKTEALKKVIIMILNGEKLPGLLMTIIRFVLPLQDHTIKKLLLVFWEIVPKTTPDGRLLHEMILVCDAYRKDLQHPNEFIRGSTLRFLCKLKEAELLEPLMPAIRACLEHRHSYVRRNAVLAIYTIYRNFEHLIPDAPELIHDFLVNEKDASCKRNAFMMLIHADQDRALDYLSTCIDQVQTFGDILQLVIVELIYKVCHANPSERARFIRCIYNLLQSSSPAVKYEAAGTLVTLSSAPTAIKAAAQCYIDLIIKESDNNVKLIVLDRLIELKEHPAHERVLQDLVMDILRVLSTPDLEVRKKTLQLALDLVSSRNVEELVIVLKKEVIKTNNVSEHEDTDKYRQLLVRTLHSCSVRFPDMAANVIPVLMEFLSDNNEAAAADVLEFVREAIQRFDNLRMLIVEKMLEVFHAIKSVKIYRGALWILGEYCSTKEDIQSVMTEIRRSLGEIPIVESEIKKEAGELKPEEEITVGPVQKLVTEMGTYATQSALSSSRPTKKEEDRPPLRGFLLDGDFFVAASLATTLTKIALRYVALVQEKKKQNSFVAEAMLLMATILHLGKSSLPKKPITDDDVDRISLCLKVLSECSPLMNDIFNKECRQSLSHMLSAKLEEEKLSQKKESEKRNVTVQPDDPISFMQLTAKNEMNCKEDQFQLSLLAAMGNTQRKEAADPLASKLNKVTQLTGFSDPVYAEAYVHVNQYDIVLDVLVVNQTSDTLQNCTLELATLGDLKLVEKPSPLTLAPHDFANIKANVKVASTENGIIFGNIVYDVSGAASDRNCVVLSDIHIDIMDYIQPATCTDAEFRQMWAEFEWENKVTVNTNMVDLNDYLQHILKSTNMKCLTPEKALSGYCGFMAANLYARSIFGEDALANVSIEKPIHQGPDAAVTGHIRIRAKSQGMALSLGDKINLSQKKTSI
UniProt P20674, whole entry, looked up: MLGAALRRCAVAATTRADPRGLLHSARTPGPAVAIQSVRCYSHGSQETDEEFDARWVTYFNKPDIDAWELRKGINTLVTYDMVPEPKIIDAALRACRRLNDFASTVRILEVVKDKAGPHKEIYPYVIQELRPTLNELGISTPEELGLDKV
UniProt O75718: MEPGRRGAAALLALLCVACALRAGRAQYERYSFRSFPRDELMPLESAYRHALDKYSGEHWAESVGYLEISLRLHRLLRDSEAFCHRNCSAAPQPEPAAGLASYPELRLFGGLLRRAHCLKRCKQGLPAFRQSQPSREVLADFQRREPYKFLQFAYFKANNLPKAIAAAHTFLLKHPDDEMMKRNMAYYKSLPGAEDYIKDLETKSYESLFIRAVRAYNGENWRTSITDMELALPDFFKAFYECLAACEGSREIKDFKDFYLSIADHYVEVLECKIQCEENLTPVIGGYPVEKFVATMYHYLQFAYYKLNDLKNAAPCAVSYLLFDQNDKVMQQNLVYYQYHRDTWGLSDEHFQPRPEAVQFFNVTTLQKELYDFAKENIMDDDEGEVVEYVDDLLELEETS
UniProt P10606, whole entry, looked up: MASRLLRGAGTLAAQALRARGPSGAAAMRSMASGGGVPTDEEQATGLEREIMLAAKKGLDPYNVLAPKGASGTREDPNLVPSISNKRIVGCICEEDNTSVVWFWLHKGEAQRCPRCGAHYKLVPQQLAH
UniProt P52943: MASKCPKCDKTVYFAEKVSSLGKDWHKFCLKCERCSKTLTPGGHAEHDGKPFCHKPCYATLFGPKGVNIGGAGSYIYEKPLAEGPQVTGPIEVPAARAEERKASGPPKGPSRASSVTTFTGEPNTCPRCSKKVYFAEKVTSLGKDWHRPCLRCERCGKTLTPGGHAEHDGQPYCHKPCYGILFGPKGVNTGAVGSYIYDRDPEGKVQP

[2] = compound: CC1=C(C=C(C=C1)NC(=O)C2=CC(=CC=C2)N(C)C)NC(=O)C3=CC=C(C=C3)O
In short: as §1

[3] = compound: CC1=CC=C(C=C1)SC2=C3C=C(SC3=CN=C2)C(=O)N
In short: as §1

[4] = compound: CC1=NC(=CC=C1)C2=C(N=C(N2)C(C)(C)C)C3=CC4=NC=CN=C4C=C3
In short: as §1

[5] = compound: CCCCN(Cc1ccc(C(=O)NO)cc1)C(=O)Nc1ccccc1 [Nexturastat A]
In short: as §1

[6] = compound: CCCS(=O)(=O)Nc1ccc(F)c(C(=O)c2c[nH]c3ncc(-c4ccc(Cl)cc4)cc23)c1F [vemurafenib]
In short: as §1

[7] = compound: CCCS(=O)(=O)Nc1ccc(F)c(C(=O)c2c[nH]c3ncc(Cl)cc23)c1F
In short: as §1

[8] = compound: CCCc1cc(C)[nH]c(=O)c1CNC(=O)c1cc(-c2ccnc(N3CCN(C)CC3)c2)cc2c1cnn2C(C)C
In short: as §1

[9] = compound: CCN(CC)Cc1ccc2cc(COC(=O)Nc3ccc(C(=O)NO)cc3)ccc2c1 [givinostat]
In short: as §1

[10] = compound: CCN(CCCOc1ccc2c(Nc3cc(CC(=O)Nc4cccc(F)c4)[nH]n3)ncnc2c1)CCOP(=O)(O)O [barasertib]
In short: as §1

Measured: log2 fold change

COPS6 (UniProt Q7L5N1)
inactive: [1] 0.051 | [2] -0.01 | [3] -0.012 | [4] 0.087 | [5] -0.078 | [6] 0.013 | [7] -0.005 | [8] -0.012 | [9] -0.119 | [10] -0.021

CORO7 isoform 3 (UniProt P57737)
inactive: [1] 0.149 | [2] -0.003 | [3] 0.029 | [4] 0.054 | [5] -0.066 | [6] 0.011 | [7] 0.002 | [8] -0.039 | [9] -0.011 | [10] 0.031

COQ6 (UniProt Q9Y2Z9)
inactive: [1] 0.01 | [2] -0.061 | [3] 0.118 | [4] 0.044 | [5] -0.171 | [6] 0.018 | [7] 0.143 | [8] -0.065 | [9] -0.027 | [10] 0.018

COX20 isoform 2 (UniProt Q5RI15)
inactive: [1] 0.035 | [2] -0.041 | [3] 0.102 | [4] 0.036 | [5] -0.038 | [6] -0.036 | [7] -0.041 | [8] 0.069 | [9] -0.04 | [10] -0.03

COMMD2 (UniProt Q86X83)
inactive: [1] -0.014 | [2] -0.051 | [3] 0.007 | [4] 0.035 | [5] 0.022 | [6] 0.023 | [7] 0.159 | [8] 0.019 | [9] 0.11 | [10] 0.053

2 neighbouring records already listed:
COPS6 (UniProt Q7L5N1)
inactive: [1] 0.051 | [2] -0.01 | [3] -0.012 | [4] 0.087 | [5] -0.078 | [6] 0.013 | [7] -0.005 | [8] -0.012 | [9] -0.119 | [10] -0.021

CORO7 isoform 3 (UniProt P57737)
inactive: [1] 0.149 | [2] -0.003 | [3] 0.029 | [4] 0.054 | [5] -0.066 | [6] 0.011 | [7] 0.002 | [8] -0.039 | [9] -0.011 | [10] 0.031

Additional records:

COPB2 (UniProt P35606)
inactive: [1] -0.007 | [2] -0.013 | [3] -0.009 | [4] 0.014 | [5] -0.012 | [6] 0.004 | [7] 0.04 | [8] -0.001 | [9] -0.016 | [10] 0.022

COPS7A (UniProt Q9UBW8)
inactive: [1] 0.021 | [2] 0.062 | [3] 0.034 | [4] -0.011 | [5] 0.042 | [6] 0 | [7] -0.009 | [8] -0.066 | [9] 0.033 | [10] 0.014

CRPPA (UniProt A4D126)
inactive: [1] -0.021 | [2] -0.038 | [3] 0.103 | [4] -0.044 | [5] -0.07 | [6] -0.034 | [7] -0.012 | [8] -0.024 | [9] 0.012 | [10] -0.009

COQ5 (UniProt Q5HYK3)
inactive: [1] -0.04 | [2] 0.054 | [3] 0.04 | [4] -0.012 | [5] 0.061 | [6] -0.033 | [7] -0.006 | [8] -0.035 | [9] -0.074 | [10] -0.05

COMMD10 (UniProt Q9Y6G5)
inactive: [1] 0.029 | [2] 0 | [3] -0.01 | [4] -0.01 | [5] -0.037 | [6] 0.117 | [7] 0.118 | [8] 0.015 | [9] -0.014 | [10] -0.005

COX7C (UniProt P15954)
inactive: [1] -0.057 | [2] -0.187 | [3] -0.01 | [4] 0.088 | [5] 0.027 | [6] -0.018 | [7] -0.085 | [8] 0.143 | [9] -0.271 | [10] 0.061

COMTD1 (UniProt Q86VU5)
inactive: [1] 0.034 | [2] 0.016 | [3] 0.004 | [4] 0.068 | [5] 0.013 | [6] 0.008 | [7] -0.032 | [8] -0.016 | [9] -0.089 | [10] 0.089

CRELD2 isoform 5 (UniProt Q6UXH1)
inactive: [1] -0.024 | [2] 0.02 | [3] -0.027 | [4] -0.098 | [5] -0.016 | [6] -0.007 | [7] -0.081 | [8] 0.051 | [9] -0.08 | [10] 0.085

COLGALT2 (UniProt Q8IYK4)
inactive: [1] 0.019 | [2] -0.003 | [3] -0.031 | [4] -0.096 | [5] 0.1 | [6] -0.036 | [7] -0.072 | [8] 0.052 | [9] -0.029 | [10] -0.003

CRIPT (UniProt Q9P021)
inactive: [1] 0.153 | [2] 0.045 | [3] 0.022 | [4] -0.068 | [5] 0.063 | [6] -0.044 | [7] -0.003 | [8] -0.06 | [9] 0.012 | [10] -0.053

CSNK2A1 (UniProt P68400)
inactive: [1] -0.047 | [2] -0.004 | [3] -0.044 | [4] 0.025 | [5] 0.034 | [6] 0.006 | [7] 0.008 | [8] -0.018 | [9] -0.003 | [10] -0.024

CPSF2 (UniProt Q9P2I0)
inactive: [1] 0.001 | [2] -0.066 | [3] -0.001 | [4] 0.029 | [5] 0.163 | [6] -0.019 | [7] -0.021 | [8] -0.261 | [9] -0.02 | [10] -0.022

CPT1A (UniProt P50416)
inactive: [1] 0.069 | [2] -0.077 | [3] -0.054 | [4] -0.114 | [5] 0.083 | [6] 0.11 | [7] 0.022 | [8] 0.09 | [9] 0.048 | [10] 0.01

CSNK1G1 (UniProt Q9HCP0)
inactive: [1] -0.023 | [2] 0.251 | [5] 0.337 | [8] 0.241 | [9] 0.123 | [10] -0.013

COX17 (UniProt Q14061)
inactive: [1] -0.015 | [2] -0.358 | [4] 0.024 | [5] 0 | [6] 0.029 | [8] 0.025 | [9] 0.029

COX6C (UniProt P09669)
inactive: [1] 0.008 | [2] -0.017 | [3] 0.012 | [4] 0.015 | [5] -0.095 | [6] 0.003 | [7] -0.025 | [8] -0.04 | [9] -0.005 | [10] -0.001

COMP (UniProt P49747)
inactive: [1] 0.133 | [2] 0.402 | [3] 0.089 | [4] 0.074 | [7] -0.14 | [8] -0.296 | [9] -0.075 | [10] 0.033

COPB1 (UniProt P53618)
inactive: [1] 0.052 | [2] -0.033 | [3] 0.015 | [4] 0.01 | [5] -0.084 | [6] 0.034 | [7] 0.044 | [8] 0.003 | [9] 0.024 | [10] 0.007

COX5A (UniProt P20674)
inactive: [1] -0.005 | [2] -0.074 | [3] 0 | [4] -0.016 | [5] 0.072 | [6] 0.165 | [7] -0.114 | [8] -0.093 | [9] -0.092 | [10] 0.085

CRTAP (UniProt O75718)
inactive: [1] 0 | [2] -0.016 | [3] -0.043 | [4] -0.035 | [5] -0.049 | [6] -0.051 | [7] -0.039 | [8] 0.039 | [9] -0.006 | [10] -0.043

COX5B (UniProt P10606)
inactive: [1] -0.038 | [2] -0.096 | [3] 0.037 | [4] -0.008 | [5] -0.043 | [6] 0.037 | [7] -0.044 | [8] 0.013 | [9] 0.065 | [10] 0.034

CPNE2 (UniProt Q96FN4)
inactive: [1] -0.046 | [2] 0.038 | [3] 0.05 | [4] 0.058 | [5] 0.059 | [6] 0.066 | [7] 0.053 | [8] -0.064 | [9] -0.11 | [10] -0.022

CRIP2 isoform 2 (UniProt P52943)
inactive: [1] -0.044 | [3] 0.019 | [4] -0.029 | [5] -0.059 | [6] 0.163 | [7] 0.009 | [9] 0.124 | [10] -0.1
